# Data reported in patent US20160376632A1, “KINASE ACTIVITY DETECTION METHODS” (REGENTS OF THE UNIVERSITY OF MINNESOTA, priority 2014, published 2016).
# Tests used:
# [1] = TR-LRET calibration curve / HTS screening parameters of biosensor phosphorylation; conditions: in kinase reaction buffer
# [2] = Time-resolved luminescence (TR-LRET) emission spectra of phosphorylated vs unphosphorylated biosensor with Tb3+; type: physicochemical; conditions: 15 μM peptide, 100 μM Tb3+, λex 266 nm
# Protocol: FIGS. 2A-B illustrate Time-Resolved Lanthanide-based Resonance Energy Transfer (TR-LRET) detection of phosphorylation-dependent signals and fluorescence cross-interference. FIG. 2A illustrates time-resolved luminescence emission spectra for SAStide-Cy5 (dashed line) and pSAStide-Cy5 (solid line). FIG. 2B illustrates the 5-FAM-SFAStide-A (dashed line) and 5-FAM-pSFAStide-A (solid line). Spectra were collected from 15 μM peptide in the presence of 100 μM Tb3+ in 10 mM HEPES, 100 mM NaCl, pH 7.5, λex=266 nm, in 50 μL total volume, 1 ms collection time, 50 μs delay time, and sensitivity 180. Data represent the average of experiments performed in triplicate.
# Time-resolved analysis of each peptide biosensor in the presence of Tb^3+ provided the four characteristic luminescence emission peaks from Tb^3+ as well as the fluorescence emission peak from the conjugated fluorophore label (FIGS. 2A, 2B). […] These changes in the intensity of the fluorophore signals upon phosphorylation of their respective peptides provide sensor-specific spectral features that can be monitored to determine phosphorylation of the sensors and consequently kinase activity.
# Time-resolved emission spectra were collected on a Biotek Synergy4 plate reader at room temperature in black 384-well plates (Greiner Fluortrac 200). […]
Substance,Z′-factor [1],signal window (SW) [1],"increase in intensity at the Cy5 emission maximum, phosphorylated vs unphosphorylated biosensor ([2]; λ670)","increase in intensity at the 5-FAM emission maximum, phosphorylated vs unphosphorylated biosensor ([2]; λ520)"
"5-FAM-Ahx-GGEEDEDIYEELDEPGGKbGG [5-FAM-SFAStide-A, Src-family kinase peptide biosensor labelled with 5-carboxyfluorescein]",0.78,12.65,–,–
GGDEEDYEEPDEPGGCCy5GG [SAStide-Cy5],0.72,13.27,–,–
GGDEEDYEEPDEPGGCCy5GG [pSAStide-Cy5],–,–,25 fold,–
5-FAM-Ahx-GGEEDEDIYEELDEPGGKbiotinGG [5-FAM-pSFAStide-A],–,–,–,3.9 fold
